# Reference: PMC6338785
# Amino acid sequences for entries named in this document (tags omitted).
# UniProt P06537: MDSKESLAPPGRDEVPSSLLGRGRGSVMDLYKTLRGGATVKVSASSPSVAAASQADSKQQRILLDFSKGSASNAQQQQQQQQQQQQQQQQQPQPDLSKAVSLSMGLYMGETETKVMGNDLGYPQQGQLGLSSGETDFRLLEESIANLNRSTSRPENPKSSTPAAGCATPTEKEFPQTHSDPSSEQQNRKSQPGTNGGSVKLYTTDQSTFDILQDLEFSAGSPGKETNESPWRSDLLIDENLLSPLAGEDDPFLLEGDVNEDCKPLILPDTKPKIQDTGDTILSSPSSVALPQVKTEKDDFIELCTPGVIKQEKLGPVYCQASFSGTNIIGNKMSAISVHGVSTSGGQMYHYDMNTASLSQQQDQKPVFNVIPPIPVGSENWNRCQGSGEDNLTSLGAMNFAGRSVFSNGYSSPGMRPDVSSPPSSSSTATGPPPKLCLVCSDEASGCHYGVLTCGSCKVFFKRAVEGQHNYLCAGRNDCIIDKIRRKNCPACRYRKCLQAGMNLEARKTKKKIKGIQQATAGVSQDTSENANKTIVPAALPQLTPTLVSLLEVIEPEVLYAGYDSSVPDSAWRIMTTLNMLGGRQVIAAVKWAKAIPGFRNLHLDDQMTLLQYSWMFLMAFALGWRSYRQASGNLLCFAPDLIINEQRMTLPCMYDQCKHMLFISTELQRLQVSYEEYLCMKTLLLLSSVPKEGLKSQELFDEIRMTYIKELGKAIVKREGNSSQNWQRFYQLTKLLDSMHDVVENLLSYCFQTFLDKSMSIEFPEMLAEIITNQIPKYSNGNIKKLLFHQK
# Experiments:
# [1] = target: Glucocorticoid Receptor (mouse (endogenous in liver)) (UniProt P06537); assay: affinity purification with mass spectrometry; ChIP-MS: formaldehyde cross-linked, sonicated chromatin from livers of Dex-injected control mice; IP with rabbit anti-GR against rabbit IgG, protein G Dynabeads, washes up to 500 mM NaCl, 1% Triton; on-bead digest; three replicates
# [2] = target: Glucocorticoid Receptor (mouse (endogenous in liver)) (UniProt P06537); assay: condition: only in E47ΔLKO livers (E47 deleted in hepatocytes); affinity purification with mass spectrometry; ChIP-MS as for the controls, but in livers of Dex-injected Alb-Cre x E47 flox/flox (E47ΔLKO) mice, which lack E47 in hepatocytes; IP with rabbit anti-GR against rabbit IgG; three replicates
binding [1],binding [2],Binder
binds,no binding,"Heterogeneous nuclear ribonucleoprotein L Hnrnpl (protein, UniProt Q8R081 1-586) MSRRLLPRAEKRRRRLEQRQQPDEQLRRAGAMVKMAAAGGGGGGGRYYGGGNEGGRAPKRLKTENAGDQHGGGGGGGSGAAGGGGGENYDDPHKTPASPVVHIRGLIDGVVEADLVEALQEFGPISYVVVMPKKRQALVEFEDVLGACNAVNYAADNQIYIAGHPAFVNYSTSQKISRPGDSDDSRSVNSVLLFTILNPIYSITTDVLYTICNPCGPVQRIVIFRKNGVQAMVEFDSVQSAQRAKASLNGADIYSGCCTLKIEYAKPTRLNVFKNDQDTWDYTNPNLSGQGDPGSNPNKRQRQPPLLGDHPAEYGGPHGGYHSHYHDEGYGPPPPHYEGRRMGPPVGGHRRGPSRYGPQYGHPPPPPPPPDYGPHADSPVLMVYGLDQSKMNCDRVFNVFCLYGNVEKVKFMKSKPGAAMVEMADGYAVDRAITHLNNNFMFGQKMNVCVSKQPAIMPGQSYGLEDGSCSYKDFSESRNNRFSTPEQAAKNRIQHPSNVLHFFNAPLEVTEENFFEICDELGVKRPTSVKVFSGKSERSSSGLLEWDSKSDALETLGFLNHYQMKNPNGPYPYTLKLCFSTAQHAS"
binds,,"HNF4α (protein, UniProt P49698 1-474) MRLSKTLAGMDMADYSAALDPAYTTLEFENVQVLTMGNDTSPSEGANLNSSNSLGVSALCAICGDRATGKHYGASSCDGCKGFFRRSVRKNHMYSCRFSRQCVVDKDKRNQCRYCRLKKCFRAGMKKEAVQNERDRISTRRSSYEDSSLPSINALLQAEVLSQQITSPISGINGDIRAKKIANITDVCESMKEQLLVLVEWAKYIPAFCELLLDDQVALLRAHAGEHLLLGATKRSMVFKDVLLLGNDYIVPRHCPELAEMSRVSIRILDELVLPFQELQIDDNEYACLKAIIFFDPDAKGLSDPGKIKRLRSQVQVSLEDYINDRQYDSRGRFGELLLLLPTLQSITWQMIEQIQFIKLFGMAKIDNLLQEMLLGGSASDAPHTHHPLHPHLMQEHMGTNVIVANTMPSHLSNGQMCEWPRPRGQAATPETPQPSPPSGSGSESYKLLPGAITTIVKPPSAIPQPTITKQEAI"
binds,no binding,"Epithelial splicing regulatory protein 2 Esrp2 (protein, UniProt Q8K0G8 1-717) MTPPPPPPPPPGPDPAVDSATDPCPEPQSLVVLFGATAGALGPDLGSDETDLILLVWQVVEPRSRQVGTLHKSLVRAEAAALSPQCREASGLSADSLARAESLDKVLQQFSQLVSGDVALLGGGPYVLCTDGQQLLRQVLHPEASRKNLVLPDTFFSFYDLRREFHMQHPSTCSARDLTVGTMAQDLGLETDATEDDFGVWEVKTMVAVILHLLEGSNGQLFSKPEVVKQKYETGPCSKADVVDNETVVRARGLPWQSSDQDVARFFKGLNIARGGVALCLNAQGRRNGEALIRFVDSEQRDLALQRHKHHMGVRYIEVYKATGEEFVKIAGGTSLEVARFLSREDQVILRLRGLPFSAGPTDVLGFLGPECPVTGGADGLLFVRHPDGRPTGDAFALFACEELAQAALRRHKGMLGKRYIELFRSTAAEVQQVLNRYAASPLLPTLTAPLLPIPFPLAGGTGRDCVRLRGLPYTATIEDILSFLGEAAADIRPHGVHMVLNQQGRPSGDAFIQMMSVERALAAAQRCHKKMMKERYVEVVPCSTEEMSRVLMGGSLSRSGLSPPPCKLPCLSPPTYATFQATPALIPTETTALYPSSALLPAARVPAAATPLAYYPGPATQLYMNYTAYYPSPPVSPTTVGYLTTPPTALASTPTTMLSQPGALVRMQGVPYTAGMKDLLSVFQAYQLAPDDYTTLMPVGDPPRTVLQAPKEWVCL"

# No constants are given. Whether binding was seen depends on the method and setting. Binding seen in cells or lysates may run through a third protein. These calls come from enrichment with a bait or labelling near it, and not all partners need be listed. For some assays here: A no says only that the protein was not detected with the bait.
